This assay has as its target T1, activating transcription factor 5 (ATF5) (human (endogenous in KP4)) (UniProt Q9Y2D1).
T1 sequence: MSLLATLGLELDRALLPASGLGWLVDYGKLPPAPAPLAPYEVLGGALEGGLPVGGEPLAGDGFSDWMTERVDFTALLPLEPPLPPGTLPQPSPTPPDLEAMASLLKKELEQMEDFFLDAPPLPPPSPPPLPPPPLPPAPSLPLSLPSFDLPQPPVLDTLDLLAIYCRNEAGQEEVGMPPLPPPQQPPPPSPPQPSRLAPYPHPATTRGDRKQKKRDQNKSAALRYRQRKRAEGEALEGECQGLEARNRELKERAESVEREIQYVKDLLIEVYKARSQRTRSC
Briefly: co-IP; lysates of KP4 cells cultured 48 h on collagen-coated plastic dishes (stiff) or on polyacrylamide gels (stiff and soft ECMs); incubated with anti-ATF5 antibody (SD2099) or normal rabbit IgG at 4°C overnight, Capturem IP & Co-IP kit; western blotting with anti-MYC or anti-ATF5 antibody. (In general: Immunoblotting shows a protein as a band on a membrane.)

The chains behind the UniProt entries cited, without tags or fusion partners.
UniProt P01106: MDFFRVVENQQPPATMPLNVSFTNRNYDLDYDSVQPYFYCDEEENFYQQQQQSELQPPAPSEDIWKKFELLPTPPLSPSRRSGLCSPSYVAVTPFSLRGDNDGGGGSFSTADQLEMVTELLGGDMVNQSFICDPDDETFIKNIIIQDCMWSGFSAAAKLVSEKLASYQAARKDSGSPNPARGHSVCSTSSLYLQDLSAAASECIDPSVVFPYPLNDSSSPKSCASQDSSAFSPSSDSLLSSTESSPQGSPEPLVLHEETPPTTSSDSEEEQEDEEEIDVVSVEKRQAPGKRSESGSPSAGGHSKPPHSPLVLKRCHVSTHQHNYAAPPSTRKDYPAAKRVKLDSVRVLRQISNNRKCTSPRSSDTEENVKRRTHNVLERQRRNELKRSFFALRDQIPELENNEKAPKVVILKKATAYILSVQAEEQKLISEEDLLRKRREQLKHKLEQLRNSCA

These are yes or no findings as the source states them, for the method shown. Binding seen in cells or lysates may run through a third protein. Some binding calls cover weakened binding; strength is not graded here.

This is an account of results in article PMC11928855.

Regarding MYC (from UniProt P01106 1-454), the binding entry is recorded as “binds”.
